Experiment: general procedure: solution-phase peptide synthesis; DCC/hydroxybenzotriazole

Substance: Boc-Thr-Gly-Arg(NO2)-Gly-NH(CH2)4NHTfa
- step yield (coupling step): 63.0%

Substance: Boc-Thr-Gly-Arg-Gly-NH(CH2)4NH2
- step yield (late stage modification step): 20.3%

Substance: Boc-Thr-Gly-Arg-Gly-NH(CH2)4NHTfa
- step yield (late stage modification step): 17.1%

— patent US8546072B2 (Wako Pure Chemical Industries, Ltd., priority 2008, dated 2013)
